Laboratory results published in patent publication EP2889299A1, “Fluorescent red emitting functionalizable pH probes” (Paris Sciences et Lettres - Quartier Latin, priority 2013, dated 2015).

Assay: Metal screening for fluorescence quenching
Conditions: probe 5 µM; cations 10^-3 M; MOPS 30 mM, KCl 100 mM, pH 7.2; Zn2+, Mg2+, Ca2+, Fe3+, Mn2+, Cu2+

SMILES | fluorescence intensities in presence of metal ions compared to "naked" EDTA environment
[N-]=[N+]=NCCCNC(=O)c1cc(C2=c3cc4c5c(c3Oc3c2cc2c6c3CCCN6CCC2)CCC[N+]=5CCC4)ccc1O [Compound I-1] | Insignificant fluctuations
C#CCOC(=O)N1CCN(C(=O)c2cc(C3=c4cc5c6c(c4Oc4c3cc3c7c4CCCN7CCC3)CCC[N+]=6CCC5)ccc2O)CC1 [Compound I-3] | same results
C#CCN1CCN(C(=O)c2cc(C3=c4cc5c6c(c4Oc4c3cc3c7c4CCCN7CCC3)CCC[N+]=6CCC5)ccc2O)CC1 [Compound I-4] | same results
